No constants are given. Whether binding was seen depends on the method and setting. In cells and extracts the contact can be indirect.
Columns and labels:
Experiment in all cases: co-IP; HEK293 cells expressing Flag-UBAP2L wild type or mutants; lysis in 0.3% CHAPS, 40 mM HEPES pH 7.4, 150 mM NaCl; IP with Flag antibody and protein G Sepharose, 4 °C; WB of endogenous proteins; no RNase A; with/without AS (500 μM, 1 h), stress recovery, PRMT1-siRNA, HA-PRMT1, Adox, UBAP2L knock-down; some lanes with EE (2 mM EDTA, 2.5 mM EGTA) or 5 mM MgCl2 in the lysis buffer
[1] = target: UBAP2L△UBA-R_(131–190)K (human) (UniProt Q14157)
[2] = target: Flag-tagged UBAP2L with all Arg residues in the RGG domain mutated to Lys (human) (UniProt Q14157)
[3] = target: Flag-tagged UBAP2L with all Arg residues in the RGG domain mutated to Ala (human) (UniProt Q14157)

Amino acid sequences for entries named in this document (tags omitted).
UniProt Q99873: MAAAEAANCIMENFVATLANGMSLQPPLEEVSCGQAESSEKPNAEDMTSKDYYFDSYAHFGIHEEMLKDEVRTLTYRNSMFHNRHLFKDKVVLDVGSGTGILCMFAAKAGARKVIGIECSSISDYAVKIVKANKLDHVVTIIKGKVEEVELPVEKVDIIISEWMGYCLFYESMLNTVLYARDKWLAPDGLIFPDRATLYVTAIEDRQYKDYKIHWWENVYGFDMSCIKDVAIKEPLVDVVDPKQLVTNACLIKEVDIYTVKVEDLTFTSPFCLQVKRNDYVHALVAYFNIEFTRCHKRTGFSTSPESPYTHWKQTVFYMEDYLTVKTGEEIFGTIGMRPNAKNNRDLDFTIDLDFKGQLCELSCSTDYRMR

Measured: binding

protein arginine methyltransferase PRMT1, endogenous (from UniProt Q99873 1-371) (enzyme)
no binding: all assays above

Reference: publication PMC7205891
